Source: the DeepSol protein solubility set

Experiment: soluble on expression in E. coli; label from the status in PepcDB or PDB records

Row | Sequence | soluble on expression in E. coli
1 | MVGLDDAASKLGVERRRIYDIVNVLESVGVLTRRAKNQYTWKGFSAIPGALKELQEEGVKDTFHRFYVNENVKGSDDEDDDEESSQPHSSSQTDSSKPGSLPQSSDPSKIDNRREKSLGLLTQNFIKLFICSEAIRIISLDDAAKLLLGDAHNTSIMRTKVRRLYDIANVLSSMNLIEKTHTLDSRKPAFKWLGYNGEPTFTLSSDLLQLESRKRAFGTDITNVNVKRSKSSSSSQENATERRLKMKKHSTPESSYNKSFDVHESRHGSRGGYHFGPFAPGTGTYPTAGLEDNSRRAFDVENLDSDYRPSYQNQGAYILFTSI | soluble
2 | LIACVANDDVFSESETRAKFESLFRTYDKDTTFQYFKSFKRVRINFSNPLSAADARLRLHKTEFLGKEMKLYFAQTLHIGSSHLAPPNPDK | soluble
3 | FINVGERCNVAGSRKFLRLINEKKYEEALSIARKQVEDGALVIDVNMDDGLLDAREEMTTFLNLVMSEPDIARVPVMIDSSKWEVIEAGLKCLQGKSIVNSISLKEGEEIFIEHARLIKKLGAAVVVMAFDEKGQADTFERKIEVCARAYKILTEQVDFNPHDIIFDPNVLAVATGIEEHDNYAVDFIKATGWIKKNLPGAHVSGGVSNLSFSFRGNNYIREAMHAVFLYHAIRQGMDMGIVNPAASVLYTDIPADVLERIEDVVLNRRPDAAERLIETAEA | soluble
4 | MITGIQITKAANDDLLNSFWLLDSEKGEARCIVAKSGFAEDEVVAVSKLGEIEYREIPMEVKPEVRVEGGQHLNVNVLRRETLEDAVKHPEKYPQLTIRVSGYAVRFNSLTPEQQRDVIARTFTESL | not soluble
5 | MGHHHHHHSHMGKVFMTRTPKAIATKAKIDKWDLIKLKSFCIAKETSIQVNRQPTEREKIFAIYPSDKGQIQNLVYSCRSRNYKELKQIYQKKPINPIKKWAKRQARWLTSVITAPWEAKAGGSPELRSSRLKIQKLLNYSTKNIKISLAWWWAPIISATWEAEAGESLEPRRRRL | not soluble
6 | GHHHHHHAIAENLYFQSNKLKSSQKDKVRQFMIFTQSSEKTAVSCLSQNDWKLDVATDNFFQNPELYIRESVKGSLDRKKLEQLYTRYKDPQDENKIGIDGIQQFCDDLALDPASISVLIIAWKFRAATQCEFSKQEFMDGMTELGCDSIEKLKAQIPKMEQELKEPGRFKDFYQFTFNFAKNPGQKGLDLEMAIAYWNLVLNGRFKFLDLWNKFLLEHHKRSIPKDTWNLLLDFSSMIADDMSNYDEEGAWPVLIDDFVEFARPQIAGTKSTTV | not soluble
7 | MLRAASNGLRNTVAARSVSLSAANHSDAKRSDIAQYKVVDHAYDAVVVGAGGAGLRAAMGLAEGGLKTAVITKLFPTRSHTVAAQGGINAALGNMNPDNWRWHFYDTVKGSDWLGDQDAIHYMTREAERAVIELENYGMPFSRTTDGKIYQRAFGGQSNDFGRGGQAHRTCCVADRTGHSLLHTLYGASLQYNCNYFVEYFALDLIMENGVCVGVIAMDLEDGTIHRFRSKNTVLATGGYGRAFFSCTSAHTCTGDGTALTARAGINNSDMEFVQFHPTGIYGAGCLITEGSRGEGGYLVNSAGERFMERYAPNAKDLASRDVVSRSMTVEIMEGRGVGPDKDHIYLQLHHLPAEQLQQRLPGISETAMIFAGVDVTKEPIPVIPTVHYNMGGVPTNYKGQVLNYTPKKGDEVVPGLYAAGECGAHSVHGANRLGANSLLDLVIFGRACAIDILKNTSAGVGVPELPKNAGEASVANIDKLRHNKGDISTAELRLTMQKSMQNHAAVFRRGDILKEGVKVLSKLYKDQAHLNVADKGLVWNSDLIETLELQNLLINATQTIVAAENREESRGAHARDDFPDRLDELDYSKPLEGQTKKELKDHWRKHSIIRSNIETGEVSLDYRPVIDTTLDKSETDWVPPKVRSY | not soluble
8 | MTPAGFPPSSRQIAFFEMESRSGARVGVQWRDLGSLQLSSPRFKRLSCLSLLSSWYYRCPPPQPANFCVFTRDGVSLCWPGRSRTPDLRHSARLGLPKCRDYRCEPPCPAIRLLFMFAAPWGNAMATALAIQGSRACGLCVSVCVYTYSCPPAAFQVTLSHPKPC | not soluble
9 | MGHHHHHHSHPGEKSRYETSLNLTTKRFLELLSHSADGVVDLNWAAEVLKVQKRRIYDITNVLEGIQLIAKKSKNHIQWLGSHTTVGVGGRLEGLTQDLRQLQESEQQLDHLMNICTTQLRLLSEDTDSQRLAYVTCQDLRSIADPAEQMVMVIKAPPETQLQAVDSSENFQISLKSKQGPIDVFLCPEETVG | not soluble
10 | GHDGEPHDLTKLLIAEVKSRPGNSQCCDCGAADPTWLSTNLGVLTCIQCSGVHRELGVRFSRMQSLTLDLLGPSELLLALNMGNTSFNEVMEAQLPSHGGPKPSAESDMGTRRDYIMAKYVEHRFARRCTPEPQRLWTAICNRDLLSVLEAFANGQDFGQPLPGPDAQAPEELVLHLAVKVANQASLPLVDFIIQNGGHLDAKAADGNTALHYAALYNQPDCLKLLLKGRALVGTVNEAGETALDIARKKHHKECEELLEQAQAGTFAFPLHVDYSWVISTENLSSDSSLSSPSALNSLSSPSALNSTASNSPGIEGLSNKEMRILMLGLDAAGKTTILYKLKLGQSVTTIPTVGFNVETVTYKNVKFNVWDVGGQDKIRPLWRHYYTGTQGLIFVVDCADRDRIDEARQELHRIINDREMRDAIILIFANKQDLPDAMKPHEIQEKLGLTRIRDRNWYVQPSCATSGDGLYEGLTWLTSNYKSKLAAALEHHHHHH | soluble
11 | MVDHLLPVDENFSSPKCPVGYLGDRLVGRRAYHMLPSPVSEDDSDASSPCSCSSPDSQALCSCYGGGLGTESQDSILDFLLSQATLGSGGGSGSSIGASSGPVAWGPWRRAAAPVKGEHFCLPEFPLGDPDDVPRPFQPTLEEIEEFLEENMEPGVKEVPEGNSKDLDACSQLSAGPHKSHLHPGSSGRERCSPPPGGASAGGAQGPGGGPTPDGPIPVLLQIQPVPVKQESGTGPASPGQAPENVKVAQLLVNIQGQTFALVPQVVPSSNLNLPSKFVRIAPVPIAAKPVGSGPLGPGPAGLLMGQKFPKNPAAELIKMHKCTFPGCSKMYTKSSHLKAHLRRHTGEKPFACTWPGCGWRFSRSDELSRHRRSHSGVKPYQCPVCEKKFARSDHLSKHIKVHRFPRSSRSVRSVN | soluble
12 | MGSSHHHHHHSSGRENLYFQGHMSQYKTGLLLIHPAVTTTPELVENTKAQAASKKVKFVDQFLINKLNDGSITLENAKYETVHYLTPEAQTDIKFPKKLISVLADSLKPNGSLIGLSDIYKVDALINGFEIINEPDYCWIKMDSSKLNQTVSIPLKKKKTNNTKLQSGSKLPTFKKASSSTSNLPSFKKADHSRQPIVKETDSFKPPSFKMTTEPKVYRVVDDLIEDSDDDDFSSDSSKAQYFDQVDTSDDSIEEEELIDEDGSGKSMITMITCGKSKTKKKKACKDCTCGMKEQEENEINDIRSQQDKVVKFTEDELTEIDFTIDGKKVGGCGSCSLGDAFRCSGCPYLGLPAFKPGQPINLDSISDDL | soluble
13 | SEVKDANSALLSNYETLKYISKTPCRHQSPEIVREFLTALKSHKLTKAEKLQLLNHRPVTAVEIQLMVEESEERLTEEQIEALLHTVTSILPAEPEAEQKKNTNSNVAMDEEDPA | soluble
14 | MGHHHHHHSHGAIFLEGVTVKGVTQVTTQPKLGEVQQKCHQFCGWEGSGFPGAQPVSMDKQNIKLLDLKPYKVSWKADGTRYMMLIDGTNEVFMIDRDNSVFHVSNLEFPFRKDLRMHLSNTLLDGEMIIDRVNGQAVPRYLIYDIIKFNSQPVGDCDFNVRLQCIEREIISPRHEKMKTGLIDKTQEPFSVRNKPFFDICTSRKLLEGNFAKEVSHEMDGLIFQPTGKYKPGRCDDILKWKPPSLNSVDFRLKITRMGGEGLLPQNVGLLYVGGYERPFAQIKVTKELKQYDNKIIECKFENNSWVFMRQRTDKSFPNAYNTAMAVCNSISNPVTKEMLFEFIDRCTA | not soluble
15 | MGHHHHHHSHTLVEREVDITLPTDFGTFKVYGYTNEVDGKEHVAFVMGDVPFGEEPVLVRVHSECLTGDVFGSHRCDCGPQLHAALNQIAAEGRGVLLYLRQEGRGIGLINKLKAYKLQEQGYDTVEANEALGFLPDLRNYGIGAQILRDLGVRNMKLLTNNPRKIAGLEGYGLSISERVPL | soluble
